Results reported in PMC10917063.
No constants are given. Whether binding was seen depends on the method and setting. Where a sequence is shown, tags or fusion partners need not be part of it.

Target: T1, BicD, yeast two-hybrid fusion (Drosophila) (UniProt P16568)
T1 sequence: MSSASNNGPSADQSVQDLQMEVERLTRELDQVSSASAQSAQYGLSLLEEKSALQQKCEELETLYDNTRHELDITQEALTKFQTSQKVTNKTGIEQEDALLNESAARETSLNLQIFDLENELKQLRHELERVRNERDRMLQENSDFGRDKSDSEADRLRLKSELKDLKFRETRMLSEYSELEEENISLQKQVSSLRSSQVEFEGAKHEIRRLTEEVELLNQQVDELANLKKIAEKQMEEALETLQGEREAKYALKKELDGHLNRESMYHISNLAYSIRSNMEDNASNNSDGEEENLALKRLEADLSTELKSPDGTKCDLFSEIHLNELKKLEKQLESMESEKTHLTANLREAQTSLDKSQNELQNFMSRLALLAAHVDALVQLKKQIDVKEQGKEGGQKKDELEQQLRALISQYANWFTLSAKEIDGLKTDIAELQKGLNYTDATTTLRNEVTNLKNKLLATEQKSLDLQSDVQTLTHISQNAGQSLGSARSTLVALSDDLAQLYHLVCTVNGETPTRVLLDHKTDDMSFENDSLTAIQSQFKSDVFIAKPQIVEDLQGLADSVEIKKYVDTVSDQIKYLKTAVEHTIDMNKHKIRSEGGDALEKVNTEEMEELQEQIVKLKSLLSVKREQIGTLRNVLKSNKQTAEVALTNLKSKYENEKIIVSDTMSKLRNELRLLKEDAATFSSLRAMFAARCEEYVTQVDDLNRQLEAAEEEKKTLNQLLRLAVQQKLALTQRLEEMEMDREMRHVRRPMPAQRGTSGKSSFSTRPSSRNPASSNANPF
Test: two-hybrid; yeast two-hybrid; cDNAs in pOAD (AD) and pOBD2 (BD) vectors

B1: EF1γ, full-length cDNA, yeast two-hybrid fusion (protein, UniProt Q9NJH0 1-431)
chain: MVKGTLYTYPENFRAYKALIAAQYSGAQVKVADNFKFGETNKSAEFLKKFPGGKVPAFETAEGQYLSESNAIAYLLANEQLRGGKCPFVQAQVQQWISFADNEIVPASCAWVFPLLGILPQQKNSTAKQEAEAVLQQLNQKLQDATFLAGERITLADIVVFSSLLHLYEYVLEPSVRSAFGNVNRWFVTILNQKQVQAVVKDYKLCEKALVFDPKKYAEFQAKTGAAKPQQQAQQQKQEKKPKEKKEAPKKAAEPAEELDAADEALAAEPKSKDPFDALPKGTFNFDDFKRVYSNEDEAKSIPYFFDKFDAENYSIWFGEYKYNEELSKVFMSCNLITGMFQRLDKMRKAAFASVCLFGEDGNSTISGIWVWRGQDLAFTLSPDWQIDYEVYDWKKLDAKSEETKKLVTQYFSWSGTDKDGRKFNQGKIFK
binding: no binding
